US20140235533A1, “DIHYDROFURAN DERIVATIVES AS INSECTICIDAL COMPOUNDS” (SYNGENTA PARTICIPATIONS AG, priority 2011, published 2014)
Some results were stated once for a whole list of compounds, not compound by compound. For part of these data: At least one structure is not confirmed: it was looked up by name or label, or the drawing left a doubt.

Experiments:
Type in all cases: in vivo
[1] = system: Thrips tabaci; test: Thrips tabaci (onion thrips) sunflower leaf disc spray test; settings: 200 ppm spray on sunflower leaf discs, thrip population of mixed ages; mortality after 7 days
[2] = system: Tetranychus urticae; test: Tetranychus urticae (two-spotted spider mite) bean leaf disc spray test; settings: 200 ppm spray on bean leaf discs, mite populations of mixed ages; egg, larval and adult mortality 8 days later
From the text: Tetranychus urticae (Two-Spotted Spider Mite): Bean leaf discs on agar in 24-well microtiter plates were sprayed with test solutions at an application rate of 200 ppm. After drying, the leaf discs are infested with mite populations of mixed ages. 8 days later, discs are checked for egg mortality, larval mortality, and adult mortality.

[3] = system: Diabrotica balteata; test: Diabrotica balteata (corn root worm) artificial diet MTP test; settings: 200 ppm (concentration in well 18 ppm), L2 larvae, larval mortality and growth regulation after 5 days
Procedure: (§1) Diabrotica balteata (Corn Root Worm): A 24-well microtiter plate (MTP) with artificial diet was treated with test solutions at an application rate of 200 ppm (concentration in well 18 ppm) by pipetting. After drying, the MTPs were infested with L2 larvae (6-10 per well). After an incubation period of 5 days, samples were checked for larval mortality and growth regulation.

[4] = system: Spodoptera littoralis; test: Spodoptera littoralis (Egyptian cotton leafworm) cotton leaf disc spray test; settings: 200 ppm spray on cotton leaf discs, 5 L1 larvae; mortality, feeding behavior, growth regulation 3 days after treatment
From the text: Spodoptera littoralis (Egyptian Cotton Leafworm) Cotton leaf discs were placed on agar in a 24-well microtiter plate and sprayed with test solutions at an application rate of 200 ppm. After drying, the leaf discs were infested with 5 L1 larvae. The samples were checked for mortality, feeding behavior, and growth regulation 3 days after treatment (DAT).

[5] = system: Heliothis virescens; test: Heliothis virescens (tobacco budworm) egg test on artificial diet; settings: 200 ppm (concentration in well 18 ppm), eggs 0-24 h old on artificial diet; egg mortality, larval mortality, growth regulation after 4 days
Procedure: Heliothis virescens (Tobacco Budworm):
Eggs (0-24 h old) were placed in 24-well microtiter plate on artificial diet and treated with test solutions at an application rate of 200 ppm (concentration in well 18 ppm) by pipetting. After an incubation period of 4 days, samples were checked for egg mortality, larval mortality, and growth regulation. The following compound gave at least 80% control of Heliothis virescens: A1, A2, A03, A05, A06, A07, A08, A09, A10, A11, A12, A13, A14, A15, A16, A17, A18, A19, A20, A21, A22, A25, A26, A27, A31, A32, A34, A37, A39, A40, A42, A44, A45, A46, A47, A48, A49, A50, A51, A52, A53, B1**.

[6] = system: Plutella xylostella; test: Plutella xylostella (diamond back moth) artificial diet MTP test; settings: 200 ppm (concentration in well 18 ppm), L2 larvae, larval mortality and growth regulation after 6 days
Procedure: as §1, with “Plutella xylostella (Diamond Back Moth):” for “Diabrotica balteata (Corn Root Worm): A”, “(7-12” for “(6-10”, “6” for “5”

| Compound | control of Thrips tabaci [1] | further results |
| --- | --- | --- |
| O=C(CC(F)(F)F)NCc1ccc(C2=COC(c3cc(Cl)cc(Cl)c3)(C(F)(F)F)C2)cc1Cl (stereo not drawn) [Compound A48, N-[[2-chloro-4-[2-(3,5-dichlorophenyl)-2-(trifluoromethyl)-3H-furan-4-yl]phenyl]methyl]-3,3,3-trifluoro-propanamide] | at least 80% | – |
| CC(C)C(=O)NCc1ccc(C2=COC(c3cc(Cl)cc(Cl)c3)(C(F)(F)F)C2)cc1Cl (stereo not drawn) [Compound A46, N-[[2-chloro-4-[2-(3,5-dichlorophenyl)-2-(trifluoromethyl)-3H-furan-4-yl]phenyl]methyl]-2-methyl-propanamide] | at least 80% | – |
| O=C(NCc1ccc(C2=COC(c3cc(Cl)cc(Cl)c3)(C(F)(F)F)C2)cc1Cl)C1CC1 (stereo not drawn) [Compound A2, N-[[2-chloro-4-[2-(3,5-dichlorophenyl)-2-(trifluoromethyl)-3H-furan-4-yl]phenyl]methyl]cyclopropanecarboxamide] | at least 80% | – |
| CS(=O)(=O)CC(=O)NCc1ccc(C2=COC(c3cc(Cl)cc(Cl)c3)(C(F)(F)F)C2)cc1Cl (stereo not drawn) [Compound A51, N-[[2-chloro-4-[2-(3,5-dichlorophenyl)-2-(trifluoromethyl)-3H-furan-4-yl]phenyl]methyl]-2-methylsulfonyl-acetamide] | at least 80% | – |
| C[C@H](NC(=O)C1CC1)c1ccc(C2=COC(c3cc(Cl)c(Cl)c(Cl)c3)(C(F)(F)F)C2)cc1 (stereo partly drawn) [B1*, N-[(1S)-1-[4-[2-(3,4,5-trichlorophenyl)-2-(trifluoromethyl)-3H-furan-4-yl]phenyl]ethyl]cyclopropanecarboxamide] | at least 80% | – |
| O=C(NCc1ccc(C2=COC(c3cc(Cl)cc(Cl)c3)(C(F)(F)F)C2)cc1Cl)C1CC=CCC1 (stereo not drawn) [Compound A06, N-[[2-chloro-4-[2-(3,5-dichlorophenyl)-2-(trifluoromethyl)-3H-furan-4-yl]phenyl]methyl]cyclohex-3-ene-l-carboxamide] | – | control of Tetranychus urticae [2]: at least 80%; control of Diabrotica balteata [3]: at least 80%; control of Spodoptera littoralis [4]: at least 80%; control of Heliothis virescens [5]: at least 80%; control of Plutella xylostella [6]: at least 80% |
| CCC(=O)NCc1ccc(C2=COC(c3cc(Cl)cc(Cl)c3)(C(F)(F)F)C2)cc1Cl (stereo not drawn) [Compound A05, N-[[2-chloro-4-[2-(3,5-dichlorophenyl)-2-(trifluoromethyl)-3H-furan-4-yl]phenyl]methyl]propanamide] | at least 80% | – |
| CSCC(=O)NCc1ccc(C2=COC(c3cc(Cl)cc(Cl)c3)(C(F)(F)F)C2)cc1Cl (stereo not drawn) [Compound A1, N-[[2-chloro-4-[2-(3,5-dichlorophenyl)-2-(trifluoromethyl)-3H-furan-4-yl]phenyl]methyl]-2-methylsulfanyl-acetamide] | at least 80% | – |
